Values of other authors as cited in patent US20040142970A1 (priority 2002, published 2004).

Structure (SMILES): COc1cc2c(cc1OC)C(=O)C(CC1CCN(Cc3ccccc3)CC1)C2.Cl (racemic) [donepezil, (±)-2,3-dihydro-5,6-dimethoxy-2-[[1-(phenylmethyl)-4-piperidinyl]methyl]-1H-inden-1-one hydrochloride]
- plasma half life: 70 h
